Assay results: PubChem BioAssay AID2685 (National Center for Advancing Translational Sciences (NCATS), 2010)
The other results are listed elsewhere or left out. Further columns of the screen follow, without active or inactive calls. The list favours compounds with an active or inconclusive main result. The note in brackets gives the kind of curve behind each potency; many fits are weak.

Assay: qHTS Assay for Lipid Storage Modulators in Drosophila S3 Cells;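 for cell number change: cells counted by Cell Tracker Red CMTPX staining in the red channel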
Conditions: BODIPY lipid droplet fluorescence, 18-24 h; for cell number change: measured here: cell count max response, cells fed with added oleic acid
Outline: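 Drosophila S3 cells got compounds at several concentrations plus oleic acid (400 uM solution). Laser-scanning cytometry with 488 nm excitation read lipid droplets at 500-530 nm and cells at 575-640 nm. Percent activity was relative to 20 uM Triacsin C.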

[1] = measured here: lipid fluorescence (Fed channel) AC50, cells fed with added oleic acid
[2] = measured here: cell number channel AC50, cells fed with added oleic acid

| Compound | cell number change [%] | AC50 [1] | AC50 [2] |
| --- | --- | --- | --- |
| NC(=S)N1OC[C@@H]2COc3ccc4ccccc4c3[C@@H]21 | 28.3 | 23.1 µM [rising, single point] |  |
| CCOC(=O)COc1coc(CN2CCN(c3cccc(Cl)c3)CC2)cc1=O | 42.8 | 29.1 µM [rising, single point] | 32.6 µM [rising, single point] |
| CCOC(=O)Nc1ccc(OC)c([N+](=O)[O-])c1 | 7.69 |  |  |
| C(=C1/CCCC2=C1Nc1ncnn1C2c1ccccc1)/c1ccccc1 (configuration not stated) | -49.4 | 23.1 µM [falling, single point] | 29.1 µM [falling, single point] |
| COCCN(C(=O)Nc1ccc(F)cc1F)c1nc2ccccc2s1 | -1.66 |  |  |
| COC(=O)N1c2ccccc2CCc2ccccc21 | 64 |  | 29.1 µM [rising, partial curve, poor fit] |
| C=CCOc1ccc(C2c3c(oc4ccccc4c3=O)C(=O)N2CCCN2CCOCC2)cc1 (configuration not stated) | 14.9 | 10.3 µM [rising, single point] |  |
| COCC(=O)N(Cc1cc2cc(C)ccc2[nH]c1=O)c1ccc(C)c(C)c1 | -8.03 | 29.1 µM [falling, single point] |  |
| O=C(CCCN1C(=O)S/C(=C\C=C\c2ccccc2)C1=O)Nc1ccc(O)cc1 | -6.57 | 35.5 µM [rising, single point] |  |
| CCC(C)(NC(=O)c1ccc(=O)[nH]c1)C(=O)NC1CCCC1 (configuration not stated) | -58 | 29.1 µM [falling, single point] | 25.9 µM [falling, partial curve, poor fit] |
| COc1cc2c(cc1NC(=O)COC(=O)c1ccccc1)oc1ccccc12 |  | 0.651 µM [rising, partial curve, poor fit] | 0.13 µM [rising, full curve, poor fit] |
| Cn1ccnc1SCC(=O)c1c[nH]c2ccccc12 |  | 0.082 µM [rising, partial curve, poor fit] |  |
| COc1cccc(CN(C)C(=O)CNC(=O)c2cccs2)c1OC | 4.29 | 1.03 µM [falling, full curve] | 0.731 µM [falling, full curve] |
| COc1ccc(NC(=O)COc2cccc3c2CCN(C)C3=O)c(OC)c1 | -26.7 |  |  |
| COc1ccc(Nc2ccc(N3C(=O)CCC3=O)cc2[N+](=O)[O-])cn1 | 4.88 | 32.6 µM [rising, single point] |  |
| NC(=O)c1cccc2cc3ccccc3cc12 | -69.4 |  | 0.116 µM [falling, full curve, poor fit] |

Some of the entries above, set out differently.
Compound	cell number change [%]	AC50 [1]	AC50 [2]
C=CCOc1ccc(C2c3c(oc4ccccc4c3=O)C(=O)N2CCCN2CCOCC2)cc1 (configuration not stated)	14.9	10.3 µM [rising, single point]	
O=C(CCCN1C(=O)S/C(=C\C=C\c2ccccc2)C1=O)Nc1ccc(O)cc1	-6.57	35.5 µM [rising, single point]	
COc1cccc(CN(C)C(=O)CNC(=O)c2cccs2)c1OC	4.29	1.03 µM [falling, full curve]	0.731 µM [falling, full curve]
COc1ccc(Nc2ccc(N3C(=O)CCC3=O)cc2[N+](=O)[O-])cn1	4.88	32.6 µM [rising, single point]	
